No constants are given. Whether binding was seen depends on the method and setting. Binding seen in cells or lysates may run through a third protein. Some binding calls cover weakened binding; strength is not graded here. Sequences can lack the tags named with a protein.
T1: Slitrk3 (Slit and Trk-like family member 3, ST3), wild type, Flag- or Myc-tagged (mouse) (UniProt Q810B9)
T1 sequence: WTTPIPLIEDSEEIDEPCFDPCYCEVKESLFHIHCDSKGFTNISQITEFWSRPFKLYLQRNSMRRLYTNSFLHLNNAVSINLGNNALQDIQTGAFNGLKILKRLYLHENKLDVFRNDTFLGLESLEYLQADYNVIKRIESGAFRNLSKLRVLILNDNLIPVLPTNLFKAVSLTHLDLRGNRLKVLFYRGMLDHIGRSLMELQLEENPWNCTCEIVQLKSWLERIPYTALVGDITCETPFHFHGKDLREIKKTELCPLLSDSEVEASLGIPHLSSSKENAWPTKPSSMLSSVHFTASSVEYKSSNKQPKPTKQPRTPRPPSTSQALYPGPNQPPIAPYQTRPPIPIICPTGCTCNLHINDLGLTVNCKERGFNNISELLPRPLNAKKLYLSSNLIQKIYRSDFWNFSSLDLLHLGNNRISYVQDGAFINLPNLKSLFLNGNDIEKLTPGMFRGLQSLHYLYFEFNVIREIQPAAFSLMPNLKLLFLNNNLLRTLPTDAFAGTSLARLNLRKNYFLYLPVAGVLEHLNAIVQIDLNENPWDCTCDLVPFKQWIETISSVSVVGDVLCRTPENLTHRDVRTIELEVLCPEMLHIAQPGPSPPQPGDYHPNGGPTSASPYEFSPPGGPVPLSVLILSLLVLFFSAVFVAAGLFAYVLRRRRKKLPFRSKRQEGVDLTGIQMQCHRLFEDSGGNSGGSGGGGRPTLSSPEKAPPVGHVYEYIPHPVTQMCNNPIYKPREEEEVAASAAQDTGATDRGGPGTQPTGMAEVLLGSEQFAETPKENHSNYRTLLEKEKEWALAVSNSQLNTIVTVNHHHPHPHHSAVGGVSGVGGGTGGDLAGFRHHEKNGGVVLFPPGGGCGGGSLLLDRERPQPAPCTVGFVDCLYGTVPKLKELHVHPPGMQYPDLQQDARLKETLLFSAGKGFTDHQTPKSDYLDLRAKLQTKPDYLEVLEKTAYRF


Target: T1, Slitrk3 (Slit and Trk-like family member 3, ST3), wild type, Flag- or Myc-tagged (mouse)
Test: co-IP; HEK293T cells co-transfected with Flag-ST3 and Myc-ST3 or Myc-ST3 ΔCT for 48 h; lysis buffer 25 mM Tris pH 7.4, 1% Triton X-100, 150 mM NaCl, 5% glycerol, 1 mM EDTA; lysates incubated with anti-Flag M2 affinity gel overnight at 4°C; blot with anti-Myc and anti-Flag

| binding | Binder |
| --- | --- |
| binds | Slitrk3 (Slit and Trk-like family member 3, ST3), wild type, Flag- or Myc-tagged (protein, UniProt Q810B9 28-980) WTTPIPLIEDSEEIDEPCFDPCYCEVKESLFHIHCDSKGFTNISQITEFWSRPFKLYLQRNSMRRLYTNSFLHLNNAVSINLGNNALQDIQTGAFNGLKILKRLYLHENKLDVFRNDTFLGLESLEYLQADYNVIKRIESGAFRNLSKLRVLILNDNLIPVLPTNLFKAVSLTHLDLRGNRLKVLFYRGMLDHIGRSLMELQLEENPWNCTCEIVQLKSWLERIPYTALVGDITCETPFHFHGKDLREIKKTELCPLLSDSEVEASLGIPHLSSSKENAWPTKPSSMLSSVHFTASSVEYKSSNKQPKPTKQPRTPRPPSTSQALYPGPNQPPIAPYQTRPPIPIICPTGCTCNLHINDLGLTVNCKERGFNNISELLPRPLNAKKLYLSSNLIQKIYRSDFWNFSSLDLLHLGNNRISYVQDGAFINLPNLKSLFLNGNDIEKLTPGMFRGLQSLHYLYFEFNVIREIQPAAFSLMPNLKLLFLNNNLLRTLPTDAFAGTSLARLNLRKNYFLYLPVAGVLEHLNAIVQIDLNENPWDCTCDLVPFKQWIETISSVSVVGDVLCRTPENLTHRDVRTIELEVLCPEMLHIAQPGPSPPQPGDYHPNGGPTSASPYEFSPPGGPVPLSVLILSLLVLFFSAVFVAAGLFAYVLRRRRKKLPFRSKRQEGVDLTGIQMQCHRLFEDSGGNSGGSGGGGRPTLSSPEKAPPVGHVYEYIPHPVTQMCNNPIYKPREEEEVAASAAQDTGATDRGGPGTQPTGMAEVLLGSEQFAETPKENHSNYRTLLEKEKEWALAVSNSQLNTIVTVNHHHPHPHHSAVGGVSGVGGGTGGDLAGFRHHEKNGGVVLFPPGGGCGGGSLLLDRERPQPAPCTVGFVDCLYGTVPKLKELHVHPPGMQYPDLQQDARLKETLLFSAGKGFTDHQTPKSDYLDLRAKLQTKPDYLEVLEKTAYRF |
| binds | Myc tagged ST3 C-terminal deletion mutant (Myc-ST3 ΔCT) (domain or fragment, UniProt Q810B9 28-680) WTTPIPLIEDSEEIDEPCFDPCYCEVKESLFHIHCDSKGFTNISQITEFWSRPFKLYLQRNSMRRLYTNSFLHLNNAVSINLGNNALQDIQTGAFNGLKILKRLYLHENKLDVFRNDTFLGLESLEYLQADYNVIKRIESGAFRNLSKLRVLILNDNLIPVLPTNLFKAVSLTHLDLRGNRLKVLFYRGMLDHIGRSLMELQLEENPWNCTCEIVQLKSWLERIPYTALVGDITCETPFHFHGKDLREIKKTELCPLLSDSEVEASLGIPHLSSSKENAWPTKPSSMLSSVHFTASSVEYKSSNKQPKPTKQPRTPRPPSTSQALYPGPNQPPIAPYQTRPPIPIICPTGCTCNLHINDLGLTVNCKERGFNNISELLPRPLNAKKLYLSSNLIQKIYRSDFWNFSSLDLLHLGNNRISYVQDGAFINLPNLKSLFLNGNDIEKLTPGMFRGLQSLHYLYFEFNVIREIQPAAFSLMPNLKLLFLNNNLLRTLPTDAFAGTSLARLNLRKNYFLYLPVAGVLEHLNAIVQIDLNENPWDCTCDLVPFKQWIETISSVSVVGDVLCRTPENLTHRDVRTIELEVLCPEMLHIAQPGPSPPQPGDYHPNGGPTSASPYEFSPPGGPVPLSVLILSLLVLFFSAVFVAAGLFAYVL |

Reference: publication PMC6746929
